1 compound from patent US7524849B2, “5-arylpyrimidines as anticancer agents” (Wyeth Holdings Corporation, priority 2003, dated 2009) can be followed below.

Molecules are shown by their SMILES.

What all share (format): cell-based
The subject of one test is KB cells. In words: MTS cytotoxicity test with KB cells. Particulars: Homo sapiens, read-out: IC50 (nM) KB. The source says:
(§1) Human cancer cell lines, unless otherwise noted, are obtained from the American Type Culture Collection (Rockville, Md.). […]
(§2) The assay, which is sold in kit form by Promega (Madison, Wis.; CellTiter 96 AQueous Non-Radioactive Cell Proliferation Assay), is based on the conversion by viable cells, but not by dead cells, of the tetrazolium salt, MTS (3-(4,5-dimethylthiazol-2-yl)-5-(3-carboxymethoxyphenyl)-2-(4-sulphophenyl)-2H-tetrazolium, inner salt), into a water-soluble colored formazan which is detected by spectrophotometry. […] For the test procedure, cells are harvested by trypsinization, washed, counted and distributed to wells of 96-well flat-bottom microtiter plates at 1000 cells per well in 200 μL of medium. […]
(§3) After three days of culture with test compounds (day 5 overall), the MTS assay is done on all wells of the experimental plates. The absorbance values of the quadruplicate sample wells are averaged and divided by the average of the “time 0” values. […]

The next test relates to KB-8-5 cells. In words: MTS cytotoxicity test with KB-8-5 cells (moderate P-glycoprotein). Particulars: Homo sapiens, read-out: IC50 (nM) KB 8.5.
Excerpt: as §1, §2, §3

The next test deals with KB-V1 cells. In words: MTS cytotoxicity test with KB-V1 cells (very high P-glycoprotein). Conditions: Homo sapiens, KB-V1, read-out: IC50 (nM) KB VI.
Excerpt: as §1, §2, §3
Background: Formazan colour is commonly taken as a measure of viable cells.

The test system of the next test is HL-60 cells. In words: MTS cytotoxicity test with HL-60 cells. Particulars: Homo sapiens, HL-60, read-out: IC50 (nM) HL-60.
Excerpt: as §1, §2, §3

The subject of the next test is HL-60/ADR cells. In words: MTS cytotoxicity test with HL-60/ADR cells (MRP1). Particulars: Homo sapiens, HL60/ADR, read-out: IC50 (nM) HL-60/ADR.
Excerpt: as §1, §2, §3

In the next test the test system is S1 cells. In words: MTS cytotoxicity test with S1 cells. Conditions: Homo sapiens, read-out: IC50 (nM) S1.
Excerpt: as §1, §2, §3

Another test relates to S1-M1 cells. In words: MTS cytotoxicity test with S1-M1 cells (MXR). Particulars: Homo sapiens, read-out: IC50 (nM) S1-M1.
Excerpt: as §1, §2, §3

On to `COc1cc2c(c(OC)c1OC)-c1ccc(OC)c(=O)cc1[C@@H](NC(C)=O)CC2` [Colchicine, reference compound], for which the IC50 came to 13 nM in the test on KB cells; 61 nM in the test on KB-8-5 cells; 1200 nM in the test with KB-V1 cells; 21 nM with HL-60 cells; 182 nM in the test on HL-60/ADR cells; 37 nM in the test with S1 cells. Also, in the test on S1-M1 cells, the IC50 is 109 nM.
